This note sets out measurements from PMC11816892.

Protein sequences, listed by entry. Tags and fused reporters are not part of them.
UniProt P49736: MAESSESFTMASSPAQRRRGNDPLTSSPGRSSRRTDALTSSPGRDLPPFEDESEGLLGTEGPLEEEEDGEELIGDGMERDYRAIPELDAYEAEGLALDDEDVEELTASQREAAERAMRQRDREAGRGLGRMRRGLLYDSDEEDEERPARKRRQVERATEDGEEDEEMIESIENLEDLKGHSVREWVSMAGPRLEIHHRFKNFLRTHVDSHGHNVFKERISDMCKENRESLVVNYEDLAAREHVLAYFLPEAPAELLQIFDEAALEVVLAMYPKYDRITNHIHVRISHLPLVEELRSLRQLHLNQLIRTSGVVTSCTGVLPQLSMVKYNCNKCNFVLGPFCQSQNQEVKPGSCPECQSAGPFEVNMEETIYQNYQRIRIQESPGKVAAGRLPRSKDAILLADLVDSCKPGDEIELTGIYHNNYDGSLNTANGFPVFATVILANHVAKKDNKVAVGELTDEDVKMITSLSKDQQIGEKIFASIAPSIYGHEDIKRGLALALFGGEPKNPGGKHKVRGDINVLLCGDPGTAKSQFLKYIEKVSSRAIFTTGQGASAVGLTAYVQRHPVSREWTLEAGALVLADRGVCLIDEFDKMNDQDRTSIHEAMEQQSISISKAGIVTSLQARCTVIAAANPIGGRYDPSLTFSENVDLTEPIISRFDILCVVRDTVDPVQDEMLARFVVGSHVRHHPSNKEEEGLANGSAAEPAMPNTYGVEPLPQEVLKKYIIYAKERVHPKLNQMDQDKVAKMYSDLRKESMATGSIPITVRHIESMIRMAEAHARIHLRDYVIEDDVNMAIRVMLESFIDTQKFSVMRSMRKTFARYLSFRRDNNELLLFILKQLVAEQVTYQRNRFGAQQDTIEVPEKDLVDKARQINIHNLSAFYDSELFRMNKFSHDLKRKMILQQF
UniProt Q9H4L4: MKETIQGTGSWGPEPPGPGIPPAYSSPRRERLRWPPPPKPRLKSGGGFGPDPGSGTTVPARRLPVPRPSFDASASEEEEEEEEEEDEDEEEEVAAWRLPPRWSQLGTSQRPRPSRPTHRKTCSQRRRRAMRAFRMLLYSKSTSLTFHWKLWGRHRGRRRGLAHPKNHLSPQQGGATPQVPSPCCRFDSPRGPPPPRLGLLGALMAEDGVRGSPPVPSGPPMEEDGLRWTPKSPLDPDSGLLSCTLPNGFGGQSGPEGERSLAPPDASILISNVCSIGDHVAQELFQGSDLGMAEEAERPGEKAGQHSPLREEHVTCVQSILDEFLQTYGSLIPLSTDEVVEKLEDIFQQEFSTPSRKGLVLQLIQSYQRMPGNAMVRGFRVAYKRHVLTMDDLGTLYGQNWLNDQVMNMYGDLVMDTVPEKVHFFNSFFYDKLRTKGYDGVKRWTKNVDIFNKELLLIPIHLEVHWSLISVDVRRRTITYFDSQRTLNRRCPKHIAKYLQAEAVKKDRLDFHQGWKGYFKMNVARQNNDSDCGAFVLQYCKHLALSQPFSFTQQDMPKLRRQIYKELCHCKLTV

These are yes or no findings as the source states them, for the method shown. In cells and extracts the contact can be indirect. Some binding calls cover weakened binding; strength is not graded here.

The target in the assay is MCM2-N154 (human (cDNA of HEK293T cells)) (UniProt P49736). Kind of assay: split reporter; BiFC with split mScarlet3 (MCM2-N154 and target-C155) co-transfected into HEK293T cells; imaged 16 to 24 h after transfection, co-stained with an MCM2 antibody.

As to SENP3-C155 (from UniProt Q9H4L4 1-574), the binding entry is recorded as “no binding”.

B1: CD2BP2-C155 (protein, UniProt O95400 1-341)
chain: MPKRKVTFQGVGDEEDEDEIIVPKKKLVDPVAGSGGPGSRFKGKHSLDSDEEEDDDDGGSSKYDILASEDVEGQEAATLPSEGGVRITPFNLQEEMEEGHFDADGNYFLNRDAQIRDSWLDNIDWVKIRERPPGQRQASDSEEEDSLGQTSMSAQALLEGLLELLLPRETVAGALRRLGARGGGKGRKGPGQPSSPQRLDRLSGLADQMVARGNLGVYQETRERLAMRLKGLGCQTLGPHNPTPPPSLDMFAEELAEEELETPTPTQRGEAESRGDGLVDVMWEYKWENTGDAELYGPFTSAQMQTWVSEGYFPDGVYCRKLDPPGGQFYNSKRIDFDLYT
Consider B1, for which the binding entry was “binds”.

B2: GTSE1-C155 (protein, UniProt Q9NYZ3 1-739)
chain: MEGGGGRDEPSACRAGDVNMDDPKKEDILLLADEKFDFDLSLSSSSANEDDEVFFGPFGHKERCIAASLELNNPVPEQPPLPTSESPFAWSPLAGEKFVEVYKEAHLLALHIESSSRNQAAQAAKPEDPRSQGVERFIQESKLKINLFEKEKEMKKSPTSLKRETYYLSDSPLLGPPVGEPRLLASSPALPSSGAQARLTRAPGPPHSAHALPRESCTAHAASQAATQRKPGTKLLLPRAASVRGRSIPGAAEKPKKEIPASPSRTKIPAEKESHRDVLPDKPAPGAVNVPAAGSHLGQGKRAIPVPNKLGLKKTLLKAPGSTSNLARKSSSGPVWSGASSACTSPAVGKAKSSEFASIPANSSRPLSNISKSGRMGPAMLRPALPAGPVGASSWQAKRVDVSELAAEQLTAPPSASPTQPQTPEGGGQWLNSSCAWSESSQLNKTRSIRRRDSCLNSKTKVMPTPTNQFKIPKFSIGDSPDSSTPKLSRAQRPQSCTSVGRVTVHSTPVRRSSGPAPQSLLSAWRVSALPTPASRRCSGLPPMTPKTMPRAVGSPLCVPARRRSSEPRKNSAMRTEPTRESNRKTDSRLVDVSPDRGSPPSRVPQALNFSPEESDSTFSKSTATEVAREEAKPGGDAAPSEALLVDIKLEPLAVTPDAASQPLIDLPLIDFCDTPEAHVAVGSESRPLIDLMTNTPDMNKNVAKPSPVVGQLIDLSSPLIQLSPEADKENVDSPLLKF
As to B2, the binding result is recorded as “binds”.

B3: VRK1-C155 (protein, UniProt Q99986 1-396)
chain: MPRVKAAQAGRQSSAKRHLAEQFAVGEIITDMAKKEWKVGLPIGQGGFGCIYLADMNSSESVGSDAPCVVKVEPSDNGPLFTELKFYQRAAKPEQIQKWIRTRKLKYLGVPKYWGSGLHDKNGKSYRFMIMDRFGSDLQKIYEANAKRFSRKTVLQLSLRILDILEYIHEHEYVHGDIKASNLLLNYKNPDQVYLVDYGLAYRYCPEGVHKEYKEDPKRCHDGTIEFTSIDAHNGVAPSRRGDLEILGYCMIQWLTGHLPWEDNLKDPKYVRDSKIRYRENIASLMDKCFPEKNKPGEIAKYMETVKLLDYTEKPLYENLRDILLQGLKAIGSKDDGKLDLSVVENGGLKAKTITKKRKKEIEESKEPGVEDTEWSNTQTEEAIQTRSRTRKRVQK
In the case of B3, the binding entry was “binds”.
